System: male rats (Slc:Wistar)
Assay: Organ weights at autopsy of male rats after repeated oral administration (Example 1)
Settings: 500 mg/kg oral once a day, compared to the control group

NCC(=O)CCC(=O)O.O=P(O)(O)O [ALA phosphate, δ-amino levulinic acid phosphate]
No significant difference: weight of prostate gland | weight of right and left epididymis | weight of right and left testis

Source: US20110065787A1, “THERAPEUTIC AGENT FOR MALE STERILITY” (SBI ALApromo., Ltd., priority 2008, published 2011)
